The supplement of paper PMC8728848
The list shows a part of the results.

Key:
Test in all cases: glycan array binding signal (z-score within array); higher = stronger binding
Conditions in all cases: glycan notation: IUPAC condensed, linker removed
Gal(b1-4)Glc6S = target: Gal(b1-4)Glc6S
How it was run: (§1)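 The binding signal is a Z-score computed within each array and averaged over linkers. Arrays of the same protein sequence at different concentrations or buffers were also averaged together. Data originate from 3228 arrays in the Consortium for Functional Glycomics database, kept only where the protein sequence was available.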

Gal(b1-4)GlcNAc = target: Gal(b1-4)GlcNAc
How it was run: as §1

[1] = target: Gal(b1-4)GlcNAc(a1-6)Gal(b1-4)GlcNAc
How it was run: as §1

Gal(b1-4)GlcNAc(b1-2)Man = target: Gal(b1-4)GlcNAc(b1-2)Man
How it was run: as §1

[2] = target: Gal(b1-4)GlcNAc(b1-2)Man(a1-3)Man(b1-4)GlcNAc(b1-4)GlcNAc
How it was run: as §1

[3] = target: Gal(b1-4)GlcNAc(b1-2)Man(a1-3)[Gal(b1-4)GlcNAc(b1-2)Man(a1-6)]Man(b1-4)GlcNAc(b1-4)GlcNAc
How it was run: as §1

[4] = target: Gal(b1-4)GlcNAc(b1-2)Man(a1-3)[Gal(b1-4)GlcNAc(b1-2)Man(a1-6)]Man(b1-4)GlcNAc(b1-4)[Fuc(a1-6)]GlcNAc
How it was run: as §1

[5] = target: Gal(b1-4)GlcNAc(b1-2)Man(a1-3)[Gal(b1-4)GlcNAc(b1-2)Man(a1-6)][Gal(b1-4)GlcNAc(b1-4)]Man(b1-4)GlcNAc(b1-4)[Fuc(a1-6)]GlcNAc
How it was run: as §1

[6] = target: Gal(b1-4)GlcNAc(b1-2)Man(a1-3)[Gal(b1-4)GlcNAc(b1-2)Man(a1-6)][GlcNAc(b1-4)]Man(b1-4)GlcNAc(b1-4)[Fuc(a1-6)]GlcNAc
How it was run: as §1

[7] = target: Gal(b1-4)GlcNAc(b1-2)Man(a1-3)[Gal(b1-4)GlcNAc(b1-2)][GlcNAc(b1-4)]Man(b1-4)GlcNAc(b1-4)GlcNAc
How it was run: as §1

[8] = target: Gal(b1-4)GlcNAc(b1-2)Man(a1-3)[GlcNAc(b1-2)Man(a1-6)]Man(b1-4)GlcNAc(b1-4)GlcNAc
How it was run: as §1

[9] = target: Gal(b1-4)GlcNAc(b1-2)Man(a1-3)[GlcNAc(b1-4)][Gal(b1-4)GlcNAc(b1-2)Man(a1-6)]Man(b1-4)GlcNAc(b1-4)GlcNAc
How it was run: as §1

[10] = target: Gal(b1-4)GlcNAc(b1-2)Man(a1-3)[Man(a1-6)]Man(b1-4)GlcNAc(b1-4)GlcNAc
How it was run: as §1

[11] = target: Gal(b1-4)GlcNAc(b1-2)Man(a1-6)Man(b1-4)GlcNAc(b1-4)GlcNAc
How it was run: as §1

[12] = target: Gal(b1-4)GlcNAc(b1-2)Man(a1-6)[GlcNAc(b1-2)Man(a1-3)]Man(b1-4)GlcNAc(b1-4)GlcNAc
How it was run: as §1

[13] = target: Gal(b1-4)GlcNAc(b1-2)Man(a1-6)[Man(a1-3)]Man(b1-4)GlcNAc(b1-4)GlcNAc
How it was run: as §1

[14] = target: Gal(b1-4)GlcNAc(b1-2)[Gal(b1-4)GlcNAc(b1-4)]Man(a1-3)[Gal(b1-4)GlcNAc(b1-2)Man(a1-6)]Man(b1-4)GlcNAc(b1-4)GlcNAc
How it was run: as §1

[15] = target: Gal(b1-4)GlcNAc(b1-2)[Gal(b1-4)GlcNAc(b1-4)]Man(a1-3)[Gal(b1-4)GlcNAc(b1-2)[Gal(b1-4)GlcNAc(b1-6)]Man(a1-6)]Man(b1-4)GlcNAc(b1-4)GlcNAc
How it was run: as §1

B1: LlpA1 (Pseudomonas fluorescens), Q4KHC3 (protein)
chain: MGSSHHHHHHSSGLVPRGSHMAWIRYDFTDNGSSVLPARYYMAPNQYLQSPNKRFKLLFQADGNLALYDGAQLAWVADQNTPFTNVSKGNKKDPMMVFMNYGFVLDDPLRGRIWSTTPSDPTMGSREDASLRAFTQVQDDGNIVTVDTIPHWYAPNGRVFTPAVGAAMIIGGTTELVPGQFYSAGEHSLVFQGDGNLVVYGPNSSVIWATYTQNKGGVRCVMQEDGNLVIYAANNGVVWQSGTGGHPGATIRLQANGSFTIVTERPVWARFGYTPTIKPPRVFYPDHKWKTGSYTWNNVF
Gal(b1-4)Glc6S
  glycan array binding signal (z-score): -0.122
Gal(b1-4)GlcNAc
  glycan array binding signal (z-score): -0.082
[1]
  glycan array binding signal (z-score): -0.492
Gal(b1-4)GlcNAc(b1-2)Man
  glycan array binding signal (z-score): -0.776
[2]
  glycan array binding signal (z-score): 0.096
[3]
  glycan array binding signal (z-score): -0.071
[4]
  glycan array binding signal (z-score): 1.77
[5]
  glycan array binding signal (z-score): -0.199
[6]
  glycan array binding signal (z-score): -0.519
[7]
  glycan array binding signal (z-score): -0.552
[8]
  glycan array binding signal (z-score): 0.504
[9]
  glycan array binding signal (z-score): -0.797
[10]
  glycan array binding signal (z-score): 0.245
[11]
  glycan array binding signal (z-score): -0.525
[12]
  glycan array binding signal (z-score): -0.122
[13]
  glycan array binding signal (z-score): 0.108
[14]
  glycan array binding signal (z-score): -0.463
[15]
  glycan array binding signal (z-score): 0.257
